From patent US20220259167A1, “FUROSEMIDE ANALOGUES AND COMPOSITIONS AND USES THEREOF FOR TREATMENT OF ALZHEIMER'S DISEASE” (UNIVERSITY HEALTH NETWORK, priority 2019, published 2022)

Tested on: peripheral mononuclear cells
Details: data not shown

## NS(=O)(=O)c1cc(C(=O)O)c(NCc2ccco2)cc1Cl [Furosemide, 4-Chloro-2-((furan-2-ylmethyl)amino)-5-sulfamoylbenzoic Acid]
  Production and release of cytokines including IL-6, IL-8, and TNF-α: inhibits the production and release of cytokines
